Measurements taken from article PMC3861458.
No constants are given. Whether binding was seen depends on the method and setting. In cells and extracts the contact can be indirect. Some results given as binding are weak or reduced against the parent protein; the word gives no strength. For some assays here: Tags and fused reporters may be left off the sequences shown.

Protein sequences, listed by entry. Tags and fused reporters are not part of them.
UniProt Q24117: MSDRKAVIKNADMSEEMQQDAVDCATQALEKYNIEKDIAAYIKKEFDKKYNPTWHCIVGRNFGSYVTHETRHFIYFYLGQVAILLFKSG

Assays:
[1] = target: T1, DIC-GFP (DIC LC8-binding peptide fused to GFP); assay: co-IP
T1 sequence: IVTYTKETQTP

[2] = target: LC8-GFP (full length LC8 fused to GFP) (UniProt Q24117); assay: co-IP

endogenous dynein light chain 8 (LC8) (from UniProt Q24117 1-89)
binding [1]: binds | binding [2]: binds
